Data taken from publication doi:10.1101/2023.08.13.546412 (bioRxiv, 2023).
These are yes or no findings as the source states them, for the method shown. Where a sequence is shown, tags or fusion partners need not be part of it.

Biological target: T1, AtSK12-BD (Arabidopsis SHAGGY-like kinase 12, yeast two-hybrid fusion) (Arabidopsis thaliana) (UniProt P43289)
T1 sequence: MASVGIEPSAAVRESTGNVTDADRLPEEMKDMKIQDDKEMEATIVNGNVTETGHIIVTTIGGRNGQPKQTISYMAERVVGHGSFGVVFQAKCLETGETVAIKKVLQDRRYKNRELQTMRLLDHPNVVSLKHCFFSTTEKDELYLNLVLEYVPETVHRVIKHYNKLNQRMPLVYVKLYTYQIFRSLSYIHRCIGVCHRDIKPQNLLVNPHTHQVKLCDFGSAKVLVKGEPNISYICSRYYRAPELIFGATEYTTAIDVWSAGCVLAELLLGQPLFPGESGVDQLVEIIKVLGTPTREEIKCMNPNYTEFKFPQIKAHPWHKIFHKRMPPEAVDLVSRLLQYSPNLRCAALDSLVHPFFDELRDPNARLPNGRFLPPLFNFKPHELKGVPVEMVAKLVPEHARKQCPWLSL
Assay: two-hybrid

binding: no binding
B1: WOX5-AD (WUSCHEL-RELATED HOMEOBOX 5, yeast two-hybrid fusion) (protein, UniProt Q8H1D2 1-182)
chain: MSFSVKGRSLRGNNNGGTGTKCGRWNPTVEQLKILTDLFRAGLRTPTTDQIQKISTELSFYGKIESKNVFYWFQNHKARERQKRRKISIDFDHHHHQPSTRDVFEISEEDCQEEEKVIETLQLFPVNSFEDSNSKVDKMRARGNNQYREYIRETTTTSFSPYSSCGAEMEHPPPLDLRLSFL
